The source of these data is paper PMC7949032.

Series [1] has as its system DDX43 KH-126. In words: filter binding. The conditions noted are these: Kd not determined, weak binding; filter binding: 25 mM Tris pH 7.5, 25 mM KOAc, 1 mM Mg(OAc)2, 1 mM DTT, 0.1 mg/ml BSA, 37 C; recombinant protein; protein details: His (pET28a); label: 5'-32P.
Another series addresses T1, DDX43 KH-74 (UniProt Q9NXZ2).
T1 sequence (looked up, limits assumed): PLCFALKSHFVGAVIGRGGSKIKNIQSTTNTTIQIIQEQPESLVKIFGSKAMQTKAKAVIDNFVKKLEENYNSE
In words: EMSA. The conditions noted are these: EMSA: 40 mM Tris pH 8.0, 0.5 mM MgCl2, 15 mM NaCl, 0.01% NP-40, 0.1 mM DTT, 1 mg/ml BSA, no ATP, ice 30 min (Fig 2A legend: RT); recombinant protein; protein details: His (pET28a); label: 5'-32P.

The target of a further series is T2, DDX43 KH-89 (UniProt Q9NXZ2).
T2 sequence (looked up): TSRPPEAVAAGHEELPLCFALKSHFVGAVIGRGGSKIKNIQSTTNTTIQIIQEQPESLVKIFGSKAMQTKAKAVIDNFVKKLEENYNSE
Description: EMSA. The conditions noted are these: EMSA: 40 mM Tris pH 8.0, 0.5 mM MgCl2, 15 mM NaCl, 0.01% NP-40, 0.1 mM DTT, 1 mg/ml BSA, no ATP, ice 30 min (Fig 2A legend: RT); recombinant protein; residues 54-142; label: 5'-32P.

In series [2] the test system is DDX43 KH-126. Description: EMSA. The conditions noted are these: up to 9.6 uM protein; EMSA: 40 mM Tris pH 8.0, 0.5 mM MgCl2, 15 mM NaCl, 0.01% NP-40, 0.1 mM DTT, 1 mg/ml BSA, no ATP, ice 30 min (Fig 2A legend: RT); recombinant protein; protein details: His (pET28a); label: 5'-32P. Background: In EMSA bound probe runs differently from free probe, usually more slowly.

For some of these results: No signal at the amounts used counts as a negative. For some of these results: At least one verdict was read from the data and is not stated in words by the source. For some of these results: Tags and fusion partners may be left off the protein sequences shown. For some of these results: Construct, isoform or probe ends are uncertain for at least one entry. For some of these results: A weaker result is weaker than the reference pair of the same experiment.

As to “GAGCUACCAGCUACCCCGUAUGUCAGAGAG / CUCUCUGACAUACGGGGUAGCUGGUAGCUC [blunt-end dsRNA 30 bp]”, the binding result in the series with DDX43 KH-126 [1] is “binds more weakly”; in the series with DDX43 KH-74 it was “no binding”; with DDX43 KH-89, “no binding”; in the series on DDX43 KH-126 [2], “no binding”.
